Experimental data reported in paper doi:10.1101/2023.12.07.570558 (bioRxiv, 2023).
Read-outs that look alike come from different tables or passages of the source. Results are given in words; binding and its absence hold for the method and conditions named. Binding seen in cells or lysates may run through a third protein. Some results given as binding are weak or reduced against the parent protein; the word gives no strength. For some of these results: Sequences can lack the tags named with a protein.

Protein sequences, listed by entry. Tags and fused reporters are not part of them.
UniProt O35625: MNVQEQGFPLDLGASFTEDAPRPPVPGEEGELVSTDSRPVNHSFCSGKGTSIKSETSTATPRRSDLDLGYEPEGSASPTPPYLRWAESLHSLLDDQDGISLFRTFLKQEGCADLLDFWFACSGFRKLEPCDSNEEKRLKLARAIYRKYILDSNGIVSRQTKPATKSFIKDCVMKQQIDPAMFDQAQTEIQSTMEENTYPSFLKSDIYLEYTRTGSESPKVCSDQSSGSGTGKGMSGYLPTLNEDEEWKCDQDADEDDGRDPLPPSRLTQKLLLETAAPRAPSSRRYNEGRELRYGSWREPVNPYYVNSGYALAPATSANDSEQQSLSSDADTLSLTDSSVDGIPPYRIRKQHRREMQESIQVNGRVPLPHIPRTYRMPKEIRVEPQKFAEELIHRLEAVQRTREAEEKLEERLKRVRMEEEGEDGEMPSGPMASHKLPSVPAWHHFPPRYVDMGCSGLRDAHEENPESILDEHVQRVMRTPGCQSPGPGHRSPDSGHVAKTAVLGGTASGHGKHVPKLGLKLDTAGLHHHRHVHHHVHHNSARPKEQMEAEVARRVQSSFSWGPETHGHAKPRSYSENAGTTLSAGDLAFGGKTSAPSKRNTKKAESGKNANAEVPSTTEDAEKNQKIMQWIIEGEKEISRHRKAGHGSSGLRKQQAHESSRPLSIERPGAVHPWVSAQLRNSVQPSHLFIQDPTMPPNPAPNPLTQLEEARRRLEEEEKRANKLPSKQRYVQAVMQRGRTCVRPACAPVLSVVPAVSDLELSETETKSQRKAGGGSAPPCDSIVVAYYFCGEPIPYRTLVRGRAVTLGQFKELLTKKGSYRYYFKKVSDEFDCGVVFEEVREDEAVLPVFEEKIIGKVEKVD
UniProt Q96EB6: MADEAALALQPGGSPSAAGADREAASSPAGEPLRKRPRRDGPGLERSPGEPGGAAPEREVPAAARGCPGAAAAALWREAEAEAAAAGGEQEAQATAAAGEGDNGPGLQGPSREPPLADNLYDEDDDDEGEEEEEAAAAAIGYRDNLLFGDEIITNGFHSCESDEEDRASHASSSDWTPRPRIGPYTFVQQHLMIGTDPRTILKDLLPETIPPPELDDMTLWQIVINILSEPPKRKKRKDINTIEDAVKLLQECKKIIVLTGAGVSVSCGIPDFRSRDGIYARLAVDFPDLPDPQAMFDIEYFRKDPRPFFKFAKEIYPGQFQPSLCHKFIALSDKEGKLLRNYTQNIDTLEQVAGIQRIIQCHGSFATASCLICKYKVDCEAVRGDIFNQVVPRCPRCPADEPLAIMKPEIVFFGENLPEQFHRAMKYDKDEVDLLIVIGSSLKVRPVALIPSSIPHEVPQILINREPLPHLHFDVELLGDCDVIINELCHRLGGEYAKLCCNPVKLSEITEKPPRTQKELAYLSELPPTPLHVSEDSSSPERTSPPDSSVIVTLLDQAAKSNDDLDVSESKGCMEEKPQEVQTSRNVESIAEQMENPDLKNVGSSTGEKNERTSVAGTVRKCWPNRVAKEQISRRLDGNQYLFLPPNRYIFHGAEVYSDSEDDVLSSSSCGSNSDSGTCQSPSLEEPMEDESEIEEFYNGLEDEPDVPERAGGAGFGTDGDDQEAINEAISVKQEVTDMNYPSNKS
UniProt Q8N6T7: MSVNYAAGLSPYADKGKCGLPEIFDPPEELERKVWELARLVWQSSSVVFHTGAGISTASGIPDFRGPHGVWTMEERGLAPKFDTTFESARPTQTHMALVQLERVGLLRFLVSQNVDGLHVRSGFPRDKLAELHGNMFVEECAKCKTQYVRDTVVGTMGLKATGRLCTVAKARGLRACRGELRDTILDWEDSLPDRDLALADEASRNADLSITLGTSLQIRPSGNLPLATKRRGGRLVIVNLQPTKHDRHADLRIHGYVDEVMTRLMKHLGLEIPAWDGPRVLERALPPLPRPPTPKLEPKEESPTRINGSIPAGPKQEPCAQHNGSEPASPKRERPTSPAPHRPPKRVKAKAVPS
UniProt Q9NRC8: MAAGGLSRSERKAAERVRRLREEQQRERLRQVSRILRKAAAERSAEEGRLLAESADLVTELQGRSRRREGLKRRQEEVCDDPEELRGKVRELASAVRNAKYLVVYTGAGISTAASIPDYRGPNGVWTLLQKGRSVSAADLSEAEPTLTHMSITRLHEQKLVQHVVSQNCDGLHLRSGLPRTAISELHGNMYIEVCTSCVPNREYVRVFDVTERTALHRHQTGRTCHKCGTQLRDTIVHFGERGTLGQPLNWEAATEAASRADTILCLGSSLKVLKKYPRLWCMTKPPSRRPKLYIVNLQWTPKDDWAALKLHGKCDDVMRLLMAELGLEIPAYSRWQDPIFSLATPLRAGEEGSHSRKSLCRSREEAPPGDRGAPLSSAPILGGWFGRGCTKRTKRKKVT

Experiments:
Experiment in all cases: co-IP
[1] = biological target: T1, Myc-tagged TULP3 (expressed in HEK293T cells) (human) (UniProt O75386)
T1 sequence: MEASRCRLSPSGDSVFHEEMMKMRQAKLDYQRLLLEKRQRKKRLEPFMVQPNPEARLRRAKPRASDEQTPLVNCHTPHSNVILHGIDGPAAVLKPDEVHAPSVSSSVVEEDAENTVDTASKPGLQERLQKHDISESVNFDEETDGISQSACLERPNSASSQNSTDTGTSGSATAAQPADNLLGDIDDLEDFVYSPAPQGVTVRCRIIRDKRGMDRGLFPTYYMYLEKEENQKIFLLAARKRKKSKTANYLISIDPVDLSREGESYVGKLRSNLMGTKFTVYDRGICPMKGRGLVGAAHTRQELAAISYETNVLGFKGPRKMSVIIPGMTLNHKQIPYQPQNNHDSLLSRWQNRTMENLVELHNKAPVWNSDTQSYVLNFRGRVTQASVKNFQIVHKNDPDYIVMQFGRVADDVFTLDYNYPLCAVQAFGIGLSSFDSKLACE

[2] = biological target: AXIN (mouse (endogenous in MEFs)) (UniProt O35625)
[3] = biological target: HA-tagged SIRT1 (expressed in HEK293T cells) (human) (UniProt Q96EB6)
[4] = biological target: T1, Myc-tagged TULP3 (expressed in HEK293T cells) (human); remark: listed apart in the source

## HA-tagged SIRT6 (from UniProt Q8N6T7 1-355) (enzyme)
[1]
  binding: binds

## HA-tagged SIRT1 (expressed in HEK293T cells) (from UniProt Q96EB6) (enzyme)
[1]
  binding: binds

## HA-tagged SIRT7 (from UniProt Q9NRC8 1-400) (enzyme)
[1]
  binding: binds

B1: liver kinase B1 (LKB1) (enzyme, UniProt Q9WTK7 1-436)
chain: MDVADPEPLGLFSEGELMSVGMDTFIHRIDSTEVIYQPRRKRAKLIGKYLMGDLLGEGSYGKVKEVLDSETLCRRAVKILKKKKLRRIPNGEANVKKEIQLLRRLRHRNVIQLVDVLYNEEKQKMYMVMEYCVCGMQEMLDSVPEKRFPVCQAHGYFRQLIDGLEYLHSQGIVHKDIKPGNLLLTTNGTLKISDLGVAEALHPFAVDDTCRTSQGSPAFQPPEIANGLDTFSGFKVDIWSAGVTLYNITTGLYPFEGDNIYKLFENIGRGDFTIPCDCGPPLSDLLRGMLEYEPAKRFSIRQIRQHSWFRKKHPLAEALVPIPPSPDTKDRWRSMTVVPYLEDLHGRAEEEEEEDLFDIEDGIIYTQDFTVPGQVLEEEVGQNGQSHSLPKAVCVNGTEPQLSSKVKPEGRPGTANPARKVCSSNKIRRLSACKQQ
[2]
  binding: binds

B2: His-tagged TULP3 (bacterially expressed) (natural protein)
chain: T1 sequence
[3]
  binding: binds

B3: HA-tagged SIRT2 (enzyme, UniProt Q8IXJ6 1-389)
chain: MAEPDPSHPLETQAGKVQEAQDSDSDSEGGAAGGEADMDFLRNLFSQTLSLGSQKERLLDELTLEGVARYMQSERCRRVICLVGAGISTSAGIPDFRSPSTGLYDNLEKYHLPYPEAIFEISYFKKHPEPFFALAKELYPGQFKPTICHYFMRLLKDKGLLLRCYTQNIDTLERIAGLEQEDLVEAHGTFYTSHCVSASCRHEYPLSWMKEKIFSEVTPKCEDCQSLVKPDIVFFGESLPARFFSCMQSDFLKVDLLLVMGTSLQVQPFASLISKAPLSTPRLLINKEKAGQSDPFLGMIMGLGGGMDFDSKKAYRDVAWLGECDQGCLALAELLGWKKELEDLVRREHASIDAQSGAGVPNPSTSASPKKSPPPAKDEARTTEREKPQ
[4]
  binding: binds

B4: HA-tagged SIRT4 (enzyme, UniProt Q9Y6E7 29-314)
chain: IGLFVPASPPLDPEKVKELQRFITLSKRLLVMTGAGISTESGIPDYRSEKVGLYARTDRRPIQHGDFVRSAPIRQRYWARNFVGWPQFSSHQPNPAHWALSTWEKLGKLYWLVTQNVDALHTKAGSRRLTELHGCMDRVLCLDCGEQTPRGVLQERFQVLNPTWSAEAHGLAPDGDVFLSEEQVRSFQVPTCVQCGGHLKPDVVFFGDTVNPDKVDFVHKRVKEADSLLVVGSSLQVYSGYRFILTAWEKKLPIAILNIGPTRSDDLACLKLNSRCGELLPLIDPC
[4]
  binding: binds
